Assay results taken from PubChem BioAssay AID2685 (National Center for Advancing Translational Sciences (NCATS), 2010).
Some of the results follow. These are further read-outs of the screen, such as a control signal, another cell line or another target. No call is given for them. The list favours compounds with an active or inconclusive main result. Words in brackets tell the shape of the fitted curve; partial curves, single points and poor fits give uncertain potencies.

Assay: qHTS Assay for Lipid Storage Modulators in Drosophila S3 Cells;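 on cell number change: cells counted by Cell Tracker Red CMTPX staining in the red channel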
Settings: BODIPY lipid droplet fluorescence, 18-24 h; for cell number change: measured here: cell count max response, cells fed with added oleic acid
How it was run: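 Drosophila S3 cells loaded with oleic acid (400 uM, as added) and compounds at several concentrations; lipid droplets imaged by 488-nm laser-scanning cytometry, 500–530 nm intensity and object ratio to cell channel. Percent activity normalized to 20 uM Triacsin C.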

[1] = measured here: lipid fluorescence (Fed channel) AC50, cells fed with added oleic acid
[2] = measured here: cell number channel AC50, cells fed with added oleic acid

SMILES | cell number change | AC50 [1] | AC50 [2]
Cc1cccc(NC(=O)C(=O)NCCCN2CCOCC2)c1 | 11% |  | 
CC(=O)Nc1ccc(NC(=O)CC2SC(=O)N(CC(=O)c3ccccc3)C2=O)cc1 (centres undefined) | 29.5% | 20600 nM [rising, single point] | 
CC(=O)C1=C(O)C(=O)N(CCC(=O)O)C1c1cccc(F)c1 (centres undefined) | -18.7% |  | 
Cc1ccc(NC(=O)c2cc(S(=O)(=O)c3ccccc3)ccc2Cl)cc1 | 18.8% | 2590 nM [rising, full curve] | 
CCC(=O)Nc1ccc(N2CCCCC2)c(C(=O)Nc2ccc(OC)cc2)c1 | 9.27% |  | 651 nM [rising, single point]
Cc1nnc(-c2ccc(Oc3ccc(C)c(C)c3)c([N+](=O)[O-])c2)o1 | 13.3% | 82 nM [rising, full curve, poor fit] | 
C=CCSc1nnc(NC(=O)CSc2nc(CCC)cc(=O)[nH]2)s1 |  |  | 580 nM [rising, single point]
C=CCNC(=S)N/N=C(\C)c1ccc(OC)cc1 | 8.88% | 6510 nM [falling, partial curve, poor fit] | 
CCN1CCN(CC(O)COc2ccc(C)c(C)c2)CC1 (centres undefined) | 2.6% | 65.1 nM [falling, full curve, poor fit] | 
Cc1cc(NC(=O)C(C)SCC(=O)N(C)CC(=O)Nc2ccccc2C(F)(F)F)no1 (centres undefined) | 22.9% |  | 
CCC(=O)Nc1ccc(S(=O)(=O)NCCc2ccccc2)cc1 | 180% |  | 20600 nM [rising, single point]
CCc1ccc(CN2CCN(C(=O)c3ccco3)CC2)cc1 | 20.4% | 291 nM [rising, partial curve, poor fit] | 
CC(Sc1nc2sccc2c(=O)n1-c1ccccc1)C(N)=O (centres undefined) | 10.4% | 580 nM [rising, single point] | 
COc1ccc(CC(=O)NC(C)c2nnc(SCCOc3ccc(OC)cc3)n2C)cc1 (centres undefined) | -44.3% | 6510 nM [falling, single point] | 5800 nM [falling, full curve]
COC(=O)c1cc2sccc2n1Cc1nc(-c2cccc(Cl)c2)oc1C |  | 1840 nM [rising, partial curve] | 
Cc1cc(OCc2cc(C(=O)N(C)C(C)c3ccccn3)no2)cc(C)c1Cl (centres undefined) | -28.1% | 29100 nM [falling, single point] | 
CCOc1ccc(C(=O)Nc2cc(Cl)ccc2-n2cncn2)cc1OC | 3.18% | 2590 nM [rising, full curve] | 1840 nM [rising, partial curve, poor fit]
CC(=O)Nc1ccc(S(=O)(=O)NCC(=O)NNC(=O)COc2ccccc2Cl)cc1 | 36.2% |  | 11600 nM [rising, partial curve, poor fit]
O=C(COC(=O)c1cccc(OC(F)F)c1)NC(=O)NC1CCCCC1 | -40.6% |  | 5800 nM [falling, partial curve]
CCOC(=O)c1ccc(-n2ccnc2)c(NC(=O)c2ccc(C(C)(C)C)cc2)c1 | 26.7% |  | 
C=CCNC(=O)C1CCC(C(=O)NCC=C)CC1 (centres undefined) |  | 130 nM [rising, full curve, poor fit] | 291 nM [rising, full curve, poor fit]

SMILES | cell number change | AC50 [1] | AC50 [2]
COc1cc2nc(C)sc2cc1SC | -6.14% |  | 2060 nM [rising, partial curve]
COc1ccc(Cc2nc3ccc(C(=O)N(C)CCn4ccnc4)cc3o2)cc1OC | -18.1% |  | 130 nM [falling, full curve, poor fit]
COC(=O)[C@]1(C)N[C@H](c2ccc(-c3ccc(Cl)c(Cl)c3)c(OC)c2)[C@@H]2C(=O)N(C)C(=O)[C@@H]21 | -20% |  | 
COc1cc(Cl)c(C)cc1NC(=O)CCNC(=O)c1ccco1 | 32.1% |  | 103 nM [rising, full curve, poor fit]
CCOC(=O)c1cc(S(=O)(=O)NCCc2ccccc2)cn1C |  | 20600 nM [rising, single point] | 
CC1CC(C)(C)N(C(=O)CSc2ccc(-c3ccc(F)cc3)nn2)c2ccccc21 (centres undefined) | -14.5% | 326 nM [falling, full curve, poor fit] | 
O=C(Nc1nnc(-c2cccs2)s1)c1cccc(F)c1 | 18% |  | 
COc1ccc(-c2cc(C(=O)NC(Cc3c[nH]c4ccccc34)C(=O)O)c(C)o2)cc1OC (centres undefined) | -3.26% | 6510 nM [rising, single point] | 6510 nM [rising, single point]
CCC(OC(=O)C(CC(C)C)NC(=O)c1ccccc1)C(=O)Nc1nnc(C)s1 (centres undefined) | 7.46% |  | 920 nM [rising, partial curve]
CC(C)(C)C1CCC(OCC(O)CN2CCCC2)CC1 (centres undefined) | -66.9% |  | 29100 nM [falling, single point]
CN(CC(=O)Nc1cccc(F)c1)C(=O)c1ccc(COc2ccccc2)o1 | 24.5% |  | 3260 nM [rising, single point]
CC(C)[C@H](NC(=O)c1ccc(C(C)(C)C)cc1)C(=O)Nc1nnc(C2CC2)s1 | -12.3% | 6510 nM [falling, partial curve, poor fit] | 
Cn1cccc1C1NC(=O)c2c(sc3c2CCC(C(C)(C)C)C3)N1 (centres undefined) | -28.6% | 6510 nM [falling, single point] | 731 nM [falling, full curve, poor fit]
O=C1C2CC(O)CN2C(=O)N1c1ccccc1 (centres undefined) | -24.3% | 146 nM [falling, full curve, poor fit] | 103 nM [falling, full curve, poor fit]
COc1ccc(CNc2nc(NCc3ccc(OC)c(OC)c3)n(C(=O)c3cccs3)n2)cc1OC | -18.1% | 411 nM [rising, full curve] | 
CCOC(=O)c1c(C)[nH]c(C(=O)NCc2ccccc2OC)c1C | -6.14% | 1640 nM [rising, full curve] | 
COc1ccc(Nc2ncccc2C(=O)NCc2ccccc2)cc1 |  |  | 461 nM [rising, single point]
Nc1nonc1-c1noc(COc2ccccc2Cl)n1 | 31% |  | 29100 nM [rising, single point]
NC(=O)C1CCN(Cc2ccc(OCc3ccccc3)cc2)CC1 | 17.1% | 1300 nM [rising, full curve] | 
COC(=O)CSc1nc(N)nc(C)c1Br | -8.19% | 29100 nM [rising, single point] | 
COc1ccc(S(=O)(=O)NCCSC(C)(C)C)c(Cl)c1Cl | 9.89% |  | 

No new results follow: an excerpt of the list.
SMILES | cell number change | AC50 [1] | AC50 [2]
Cc1ccc(NC(=O)c2cc(S(=O)(=O)c3ccccc3)ccc2Cl)cc1 | 18.8% | 2590 nM [rising, full curve] | 
CCC(=O)Nc1ccc(N2CCCCC2)c(C(=O)Nc2ccc(OC)cc2)c1 | 9.27% |  | 651 nM [rising, single point]
Cc1nnc(-c2ccc(Oc3ccc(C)c(C)c3)c([N+](=O)[O-])c2)o1 | 13.3% | 82 nM [rising, full curve, poor fit] | 

The list goes on.

SMILES | cell number change | AC50 [1] | AC50 [2]
COc1cccc(C(=O)Nc2nnc(C3CCCO3)s2)c1 (centres undefined) |  | 731 nM [falling, full curve] | 
CCN(CC(=O)NCc1cccs1)C(=O)c1cccc(S(=O)(=O)N2CCc3ccccc32)c1 | 23.9% |  | 
CC(=O)N1CCN(c2ccc(Nc3nc(C)nc4c3oc3ccccc34)cc2)CC1 | -2.42% | 29100 nM [rising, partial curve, poor fit] | 
CCCCCCCC[n+]1cccc(C(=O)N(CC)CC)c1 | 0.549% | 259 nM [falling, partial curve, poor fit] | 
Cc1ccc(CN(c2ccc(C(=O)NCc3ccccn3)cc2)S(C)(=O)=O)cc1 |  |  | 2910 nM [rising, single point]
CCCC1(c2ccccc2)NC(=O)N(CC(=O)N2CC(=O)Nc3ccccc32)C1=O (centres undefined) | -0.211% |  | 
Cc1cc(C)n(-c2nncn2/N=C/c2ccccc2F)n1 | 20.5% | 731 nM [rising, single point] | 
C/C(=N\NC(=O)CN(c1ccccc1Br)S(C)(=O)=O)c1cccs1 | -59.6% | 13000 nM [falling, partial curve] | 6510 nM [falling, partial curve]
COc1ccccc1-n1cnnc1SCC(=O)N1CCN(S(=O)(=O)c2ccccc2)CC1 |  | 3260 nM [rising, full curve] | 6510 nM [rising, single point]
Cc1cnc(NC(=O)CSc2nnc(COc3c(C)cccc3C)o2)s1 | -18.9% | 29100 nM [falling, single point] | 
Cc1cc(S(=O)(=O)Nc2c(C)nn(C)c2C)c(Cl)cc1Cl | 8.19% |  | 5800 nM [falling, single point]
CCCOC(=O)CCCCCCCCC(O)CN1CCCCC1 (centres undefined) | -74.2% | 13000 nM [falling, partial curve] | 16400 nM [falling, single point]
CCCCN(CC)c1nc(N)c2c(N)nc(OCC)cc2c1C#N |  | 580 nM [rising, full curve] | 1460 nM [rising, partial curve]
O=C(CCC1CCCCC1)Nc1nncs1 | -16.5% | 23100 nM [rising, single point] | 
CCCC(C(=O)NC(C)(C)C)N(CCN1CCOCC1)C(=O)CNS(=O)(=O)c1ccccc1 (centres undefined) | 8.7% |  | 
CCCCNC(=O)C(CC)(ONc1ccccc1C(F)(F)F)c1ccccc1OC (centres undefined) | -43.3% | 2060 nM [rising, partial curve, poor fit] | 13000 nM [falling, partial curve]
O=C1O[C@H]([C@@H](O)CO)C(O)=C1O |  |  | 2910 nM [rising, single point]
Cc1[nH]c2ccccc2c1CCNC(=O)c1ccc2c(c1[N+](=O)[O-])C(=O)c1ccccc1C2=O | -37.2% | 29100 nM [falling, single point] | 29100 nM [falling, single point]
CCOc1c(N2CCOCC2)c(=O)c1=O |  | 4110 nM [falling, single point] | 2310 nM [falling, single point]

Two entries picked at random from those above, as already listed:
SMILES | cell number change | AC50 [1] | AC50 [2]
Cc1cc(NC(=O)C(C)SCC(=O)N(C)CC(=O)Nc2ccccc2C(F)(F)F)no1 (centres undefined) | 22.9% |  | 
Cc1ccc(CN(c2ccc(C(=O)NCc3ccccn3)cc2)S(C)(=O)=O)cc1 |  |  | 2910 nM [rising, single point]
